Measurements: patent US20230218639A1, “USE OF OXYGENATED CHOLESTEROL SULFATES FOR TREATING NEUROLOGICAL CONDITIONS, NEURODEGENERATIVE DISEASES, AND ADDICTION” (Durect Corporation, priority 2020, published 2023)
The name of at least one read-out is uncertain.

Assay: Tissue distribution by quantitative whole body autoradiography, intravenous dose
Type: in vivo, Sprague Dawley rats
Settings: intravenous 10 mg/kg
Procedure: Nine male Sprague Dawley rats (Group 1) were designated for the pharmacokinetic phase, 3 male Sprague Dawley rats (Group 2) for the excretion mass balance phase, and 7 male Sprague Dawley rats (Group 3) and 9 male Long Evans rats (Group 4) for the tissue distribution phase. All animals received a single intravenous dose of [^14C]-25HC3S at 10 mg/kg and a target radioactivity of 225 μCi/kg. Blood samples were collected from all Group 1 animals at approximately 0.083, 0.25, 0.5, 1, 2, 4, 8, 12, 24, 48, and 72 hours post-dose. Urine and feces were collected from all Group 2 animals periodically through 168 hours post-dose. […] Following blood collection, animals were euthanized by CO2 inhalation and carcasses frozen in a dry ice/hexane bath for processing by quantitative whole body autoradiography. Whole blood, plasma, urine, feces, cage rinse, and cage wash were analyzed for total radioactivity by liquid scintillation counting.

Structure (SMILES): C[C@H](CCCC(C)(C)O)[C@H]1CC[C@H]2[C@@H]3CC=C4C[C@@H](OS(=O)(=O)O)CC[C@]4(C)[C@H]3CC[C@]12C [25HC3S, 5-Cholesten-3β, 25-diol 3-sulfate]
- whole blood Cmax: 8530 ng-equiv/g
